Data as given in PubChem BioAssay AID1259308 (NCATS, 2017).
Here is a random part of about 59,000 reagents tested. In the full data, about 1,510 (2.6%) are marked active. 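Calls use total luciferase alone and ignore viability, so some active siRNAs may act by altering cell number.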 Reagents against one gene are numbered here. Further read-outs or replicates are left out here.

- Aim: 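Knock-downs that increase output of a recombinant reporter protein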 (primary screen)
- System: human HEK293 embryonic kidney cells stably expressing firefly luciferase (HEK-CMV-Luc2-Hygro)
- Reagent: single siRNA against human genes, 0.8 pmol siRNA per well
- Duration: 72 h
- Measured: 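Luciferase light (ONE-Glo) measured on one replicate plate set and viability (CellTiter-Glo) on the other, scaled to a negative control siRNA, with robust z-scores and luciferase per cell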
- Direction: total luciferase, z-score: higher = more reporter protein produced
- Active means: 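An siRNA counts as active if its total luciferase robust z-score exceeds 3; genes with two or more such siRNAs out of three were retested with fresh siRNAs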
- Meaning of the calls: active = raised luciferase; inactive = no rise

{"gene knocked down": "NXF2", "reagent": 1, "total luciferase, z-score": -2.16, "Call": "inactive"}
{"gene knocked down": "NXF2", "reagent": 2, "total luciferase, z-score": -1.24, "Call": "inactive"}
{"gene knocked down": "NXF2", "reagent": 3, "total luciferase, z-score": -0.878, "Call": "inactive"}
{"gene knocked down": "IL12RB2", "reagent": 1, "total luciferase, z-score": -0.424, "Call": "inactive"}
{"gene knocked down": "IL12RB2", "reagent": 2, "total luciferase, z-score": 0.0675, "Call": "inactive"}
{"gene knocked down": "IL12RB2", "reagent": 3, "total luciferase, z-score": -0.963, "Call": "inactive"}
{"gene knocked down": "SMIM14", "reagent": 1, "total luciferase, z-score": 2.31, "Call": "inactive"}
{"gene knocked down": "SMIM14", "reagent": 2, "total luciferase, z-score": -0.176, "Call": "inactive"}
{"gene knocked down": "SMIM14", "reagent": 3, "total luciferase, z-score": -1.49, "Call": "inactive"}

Copied from the entries so far (2 entries):
{"gene knocked down": "IL12RB2", "reagent": 1, "total luciferase, z-score": -0.424, "Call": "inactive"}
{"gene knocked down": "IL12RB2", "reagent": 2, "total luciferase, z-score": 0.0675, "Call": "inactive"}

More records follow.
{"gene knocked down": "TAS2R3", "reagent": 1, "total luciferase, z-score": -0.644, "Call": "inactive"}
{"gene knocked down": "TAS2R3", "reagent": 2, "total luciferase, z-score": 1.3, "Call": "inactive"}
{"gene knocked down": "TAS2R3", "reagent": 3, "total luciferase, z-score": -0.387, "Call": "inactive"}
{"gene knocked down": "TLK1", "reagent": 1, "total luciferase, z-score": -2.11, "Call": "inactive"}
{"gene knocked down": "TLK1", "reagent": 2, "total luciferase, z-score": -0.0169, "Call": "inactive"}
{"gene knocked down": "TLK1", "reagent": 3, "total luciferase, z-score": 1.19, "Call": "inactive"}
{"gene knocked down": "JCHAIN", "reagent": 1, "total luciferase, z-score": 1.99, "Call": "inactive"}
{"gene knocked down": "JCHAIN", "reagent": 2, "total luciferase, z-score": 0.168, "Call": "inactive"}
{"gene knocked down": "JCHAIN", "reagent": 3, "total luciferase, z-score": 2.05, "Call": "inactive"}
{"gene knocked down": "WDHD1", "reagent": 1, "total luciferase, z-score": 1.16, "Call": "inactive"}
{"gene knocked down": "WDHD1", "reagent": 2, "total luciferase, z-score": 0.0123, "Call": "inactive"}
{"gene knocked down": "WDHD1", "reagent": 3, "total luciferase, z-score": -0.686, "Call": "inactive"}
